No constants are given. Whether binding was seen depends on the method and setting. Some results given as binding are weak or reduced against the parent protein; the word gives no strength. Where a sequence is shown, tags or fusion partners need not be part of it.

The target of this test is T1, IL-15 receptor on murine CTLL-2 cells (mouse) (UniProt Q60819+P16297+P34902).
T1 sequence (looked up) 1: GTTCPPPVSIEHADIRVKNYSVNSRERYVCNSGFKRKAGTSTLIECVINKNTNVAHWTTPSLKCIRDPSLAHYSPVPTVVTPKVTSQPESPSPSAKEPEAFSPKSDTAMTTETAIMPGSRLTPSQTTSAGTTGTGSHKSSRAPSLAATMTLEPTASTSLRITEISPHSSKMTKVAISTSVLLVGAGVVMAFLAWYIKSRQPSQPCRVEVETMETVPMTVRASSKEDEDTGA
T1 sequence (looked up) 2: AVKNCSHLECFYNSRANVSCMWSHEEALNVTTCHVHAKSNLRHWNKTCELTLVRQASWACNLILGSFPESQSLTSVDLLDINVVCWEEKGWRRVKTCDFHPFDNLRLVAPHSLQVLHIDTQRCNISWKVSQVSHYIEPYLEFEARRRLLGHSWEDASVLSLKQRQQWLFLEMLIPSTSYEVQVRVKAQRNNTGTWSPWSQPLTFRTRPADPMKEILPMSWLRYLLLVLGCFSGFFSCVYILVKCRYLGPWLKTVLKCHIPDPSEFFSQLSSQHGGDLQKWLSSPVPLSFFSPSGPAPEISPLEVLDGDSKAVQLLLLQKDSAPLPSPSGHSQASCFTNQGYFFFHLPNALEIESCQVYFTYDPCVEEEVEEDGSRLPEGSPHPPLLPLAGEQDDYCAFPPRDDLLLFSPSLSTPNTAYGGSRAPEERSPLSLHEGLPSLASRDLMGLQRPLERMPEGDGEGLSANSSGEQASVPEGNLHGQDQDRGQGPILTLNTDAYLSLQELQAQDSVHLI
T1 sequence (looked up) 3: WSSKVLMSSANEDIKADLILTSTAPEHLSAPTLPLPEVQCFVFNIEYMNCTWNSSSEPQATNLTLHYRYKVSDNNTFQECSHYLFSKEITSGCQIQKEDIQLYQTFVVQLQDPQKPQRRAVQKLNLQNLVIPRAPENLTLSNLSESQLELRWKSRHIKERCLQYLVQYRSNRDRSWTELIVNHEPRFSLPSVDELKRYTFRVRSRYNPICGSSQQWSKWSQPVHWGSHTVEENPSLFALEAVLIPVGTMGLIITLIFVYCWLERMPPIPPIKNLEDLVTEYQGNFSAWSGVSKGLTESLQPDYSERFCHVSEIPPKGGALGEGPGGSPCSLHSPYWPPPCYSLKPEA
Briefly: flow cytometry of FITC-conjugated protein on CTLL-2 cells.

B1: Fusion polypeptide SEQ ID NO: 28 (modified IL-15), FITC conjugated (ligand)
chain: MNWVNVISDLKKIEDLIQSMHIDATLYTESDVHPSCKVTAMKCFLLELQVISLESGDASIHDTVENLIILANNSLSSGNVTESGCKECEELEEKNIKEFLQSFVHIVQMFINTSGSGSRGKSLTSKVPPTVQKPTTVNVPTTEVSPTSQKTTTHHHHHHC
modifications: labelled with fluorescein isothiocyanate (FITC); labelled residues not stated
As for B1, the binding entry is “binds”.

Source of the values: patent US20220372097A1.
